# From the supplement of paper PMC8728848
# The other results are listed elsewhere or left out.
# How the values were obtained:
# Experiment in all cases: glycan array binding signal (z-score within array); higher = stronger binding
# Conditions in all cases: glycan notation: IUPAC condensed, linker removed
# [1] = target: Gal(b1-4)GlcNAc(b1-3)Gal(b1-4)GlcNAc(b1-6)[Gal(b1-3)]GalNAc
# Summary of the method: (§1)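 Negative Z-scores can be read as non-binding. The Z-score is calculated within each array and then averaged across arrays of one protein sequence at different concentrations or buffers and across linkers. Arrays, 3228 in all, were curated from the Consortium for Functional Glycomics database and kept only where the protein sequence was available.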
# [2] = target: Gal(b1-4)GlcNAc(b1-3)Gal(b1-4)[Fuc(a1-3)]GlcNAc(b1-3)Gal(b1-4)[Fuc(a1-3)]GlcNAc
# Summary of the method: as §1
# [3] = target: Gal(b1-4)GlcNAc(b1-3)GalNAc
# Summary of the method: as §1
# [4] = target: Gal(b1-4)GlcNAc(b1-3)[Fuc(a1-3)GlcNAc(b1-6)]Gal(b1-4)Glc
# Summary of the method: as §1
# [5] = target: Gal(b1-4)GlcNAc(b1-3)[Gal(b1-4)GlcNAc(b1-6)]Gal(b1-4)GlcNAc
# Summary of the method: as §1
# [6] = target: Gal(b1-4)GlcNAc(b1-3)[GlcNAc(b1-6)]Gal(b1-4)GlcNAc
# Summary of the method: as §1
# [7] = target: Gal(b1-4)GlcNAc(b1-6)Gal(b1-4)GlcNAc
# Summary of the method: as §1
# [8] = target: Gal(b1-4)GlcNAc(b1-6)GalNAc
# Summary of the method: as §1
# [9] = target: Gal(b1-4)GlcNAc(b1-6)[Gal(b1-3)]GalNAc
# Summary of the method: as §1
# [10] = target: Gal(b1-4)GlcNAc(b1-6)[Gal(b1-4)GlcNAc(b1-3)]GalNAc
# Summary of the method: as §1
# Gal(b1-4)GlcNAc6P = target: Gal(b1-4)GlcNAc6P
# Summary of the method: as §1
# Gal(b1-6)Gal = target: Gal(b1-6)Gal
# Summary of the method: as §1
# Gal3S(b1-3)GalNAc = target: Gal3S(b1-3)GalNAc
# Summary of the method: as §1
# Gal3S(b1-3)GlcNAc = target: Gal3S(b1-3)GlcNAc
# Summary of the method: as §1
# [11] = target: Gal3S(b1-3)[Fuc(a1-4)]GlcNAc
# Summary of the method: as §1
# Gal3S(b1-4)Glc = target: Gal3S(b1-4)Glc
# Summary of the method: as §1
# Gal3S(b1-4)Glc6S = target: Gal3S(b1-4)Glc6S
# Summary of the method: as §1
# Gal3S(b1-4)GlcNAc = target: Gal3S(b1-4)GlcNAc
# Summary of the method: as §1
# [12] = target: Gal3S(b1-4)[Fuc(a1-3)]Glc6S
# Summary of the method: as §1
# [13] = target: Gal3S(b1-4)[Fuc(a1-3)]GlcNAc
# Summary of the method: as §1
# [14] = target: Gal3S(b1-4)[Fuc(a1-3)]GlcNAc6S
# Summary of the method: as §1
# Gal3S4S(b1-4)GlcNAc = target: Gal3S4S(b1-4)GlcNAc
# Summary of the method: as §1
# Gal3S6S(b1-4)GlcNAc = target: Gal3S6S(b1-4)GlcNAc
# Summary of the method: as §1
# Gal3S6S(b1-4)GlcNAc6S = target: Gal3S6S(b1-4)GlcNAc6S
# Summary of the method: as §1
# Gal4S(b1-4)GlcNAc = target: Gal4S(b1-4)GlcNAc
# Summary of the method: as §1
# Gal4S6S(b1-4)GlcNAc = target: Gal4S6S(b1-4)GlcNAc
# Summary of the method: as §1
# Gal6P(b1-4)GlcNAc = target: Gal6P(b1-4)GlcNAc
# Summary of the method: as §1
# Gal6S(b1-3)GlcNAc = target: Gal6S(b1-3)GlcNAc
# Summary of the method: as §1
# Gal6S(b1-3)GlcNAc6S = target: Gal6S(b1-3)GlcNAc6S
# Summary of the method: as §1
# Gal6S(b1-4)Glc = target: Gal6S(b1-4)Glc
# Summary of the method: as §1
# Gal6S(b1-4)Glc6S = target: Gal6S(b1-4)Glc6S
# Summary of the method: as §1
# Gal6S(b1-4)GlcNAc = target: Gal6S(b1-4)GlcNAc
# Summary of the method: as §1
# Gal6S(b1-4)GlcNAc6S = target: Gal6S(b1-4)GlcNAc6S
# Summary of the method: as §1
# GalNAc(a1-3)Gal = target: GalNAc(a1-3)Gal
# Summary of the method: as §1
# GalNAc(a1-3)GalNAc = target: GalNAc(a1-3)GalNAc
# Summary of the method: as §1
# [15] = target: GalNAc(a1-3)GalNAc(b1-3)Gal(a1-4)Gal(b1-4)Glc
# Summary of the method: as §1
# [16] = target: GalNAc(a1-3)GalNAc(b1-3)Gal(a1-4)Gal(b1-4)GlcNAc
# Summary of the method: as §1
binder,measurement,setting,value
"SAOUHSC 02783 (Staphylococcus aureus), Q5HD69 (protein) MIHSKKLTLGICLVLLIILIVGYVIMTKTNGRNAQIKDTFNQTLKLYPTKNLDDFYDKEGFRDQEFKKGDKGTWIVNSEMVIEPKGKDMETRGMVLYINRNTRTTKGYYFISEMTDDSNGRPKDDEKRYPVKMEHNKIIPTKPLPNDKLKKEIENFKFFVQYGNFKDINDYKDGDISYNPNVPSYSAKYQLNNDDYNVQQLRKRYDIPTKQAPKLLLKGDGDLKGSSVGSRSLEFTFVENKEENIYFTDSVQYTPSEDTRYESN",glycan array binding signal (z-score),[1],0.117
same,glycan array binding signal (z-score),[2],-1.07
same,glycan array binding signal (z-score),[3],-0.658
same,glycan array binding signal (z-score),[4],-0.544
same,glycan array binding signal (z-score),[5],0.204
same,glycan array binding signal (z-score),[6],-0.418
same,glycan array binding signal (z-score),[7],0.177
same,glycan array binding signal (z-score),[8],0.672
same,glycan array binding signal (z-score),[9],0.11
same,glycan array binding signal (z-score),[10],0.036
same,glycan array binding signal (z-score),Gal(b1-4)GlcNAc6P,-0.503
same,glycan array binding signal (z-score),Gal(b1-6)Gal,0.805
same,glycan array binding signal (z-score),Gal3S(b1-3)GalNAc,-0.373
same,glycan array binding signal (z-score),Gal3S(b1-3)GlcNAc,0.601
same,glycan array binding signal (z-score),[11],-0.32
same,glycan array binding signal (z-score),Gal3S(b1-4)Glc,0.331
same,glycan array binding signal (z-score),Gal3S(b1-4)Glc6S,-0.932
same,glycan array binding signal (z-score),Gal3S(b1-4)GlcNAc,0.679
same,glycan array binding signal (z-score),[12],-0.183
same,glycan array binding signal (z-score),[13],-0.324
same,glycan array binding signal (z-score),[14],0.421
same,glycan array binding signal (z-score),Gal3S4S(b1-4)GlcNAc,-0.234
same,glycan array binding signal (z-score),Gal3S6S(b1-4)GlcNAc,0.827
same,glycan array binding signal (z-score),Gal3S6S(b1-4)GlcNAc6S,1.56
same,glycan array binding signal (z-score),Gal4S(b1-4)GlcNAc,1.21
same,glycan array binding signal (z-score),Gal4S6S(b1-4)GlcNAc,-0.6
same,glycan array binding signal (z-score),Gal6P(b1-4)GlcNAc,-0.604
same,glycan array binding signal (z-score),Gal6S(b1-3)GlcNAc,-0.599
same,glycan array binding signal (z-score),Gal6S(b1-3)GlcNAc6S,0.639
same,glycan array binding signal (z-score),Gal6S(b1-4)Glc,0.924
same,glycan array binding signal (z-score),Gal6S(b1-4)Glc6S,-0.573
same,glycan array binding signal (z-score),Gal6S(b1-4)GlcNAc,0.166
same,glycan array binding signal (z-score),Gal6S(b1-4)GlcNAc6S,-0.5
same,glycan array binding signal (z-score),GalNAc(a1-3)Gal,-1.02
same,glycan array binding signal (z-score),GalNAc(a1-3)GalNAc,-0.467
same,glycan array binding signal (z-score),[15],-0.793
same,glycan array binding signal (z-score),[16],2.14

# 2 consecutive records from above, quoted:
binder,measurement,setting,value
"SAOUHSC 02783 (Staphylococcus aureus), Q5HD69 (protein) MIHSKKLTLGICLVLLIILIVGYVIMTKTNGRNAQIKDTFNQTLKLYPTKNLDDFYDKEGFRDQEFKKGDKGTWIVNSEMVIEPKGKDMETRGMVLYINRNTRTTKGYYFISEMTDDSNGRPKDDEKRYPVKMEHNKIIPTKPLPNDKLKKEIENFKFFVQYGNFKDINDYKDGDISYNPNVPSYSAKYQLNNDDYNVQQLRKRYDIPTKQAPKLLLKGDGDLKGSSVGSRSLEFTFVENKEENIYFTDSVQYTPSEDTRYESN",glycan array binding signal (z-score),[9],0.11
same,glycan array binding signal (z-score),[10],0.036
